Results reported in patent publication US20030083469.

Protein sequences, listed by entry. Tags and fused reporters are not part of them. Lines headed by an entry give the natural chain unless they say otherwise; changes in a name come on top.
UniProt P19793: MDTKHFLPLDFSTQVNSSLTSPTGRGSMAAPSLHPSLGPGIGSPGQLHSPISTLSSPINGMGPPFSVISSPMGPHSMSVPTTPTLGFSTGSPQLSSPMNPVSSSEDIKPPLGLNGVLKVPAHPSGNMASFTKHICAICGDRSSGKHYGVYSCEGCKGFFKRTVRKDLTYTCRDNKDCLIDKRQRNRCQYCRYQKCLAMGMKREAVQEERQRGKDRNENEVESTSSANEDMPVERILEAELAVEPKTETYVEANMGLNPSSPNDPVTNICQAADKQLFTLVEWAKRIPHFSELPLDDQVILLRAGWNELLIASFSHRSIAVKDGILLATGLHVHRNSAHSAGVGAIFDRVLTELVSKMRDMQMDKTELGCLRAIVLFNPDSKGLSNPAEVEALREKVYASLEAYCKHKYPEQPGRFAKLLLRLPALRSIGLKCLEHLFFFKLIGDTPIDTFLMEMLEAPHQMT

Molecular target: RXRalpha (Homo sapiens) (UniProt P19793)
Test: activity in cells
Conditions: minimal activation with limiting RXR vector; LG69; protein in cells; only the site is given

Sequence: GTCACAGGTCACAGGTCACAGGTCACAGTTCA (double strand) [CRBPII]
- activity on this sequence: active
